The target of the assay is T1, S100A7 (intracellular, in KYSE-30 and KYSE-150 cells) (human) (UniProt P31151).
T1 sequence: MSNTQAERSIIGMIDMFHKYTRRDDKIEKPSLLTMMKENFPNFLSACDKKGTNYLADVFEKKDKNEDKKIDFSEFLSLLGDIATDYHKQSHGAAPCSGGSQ
In words: affinity purification with mass spectrometry; anti-S100A7 co-immunoprecipitation from ESCC cells, precipitate analysed by mass spectrometry.

By UniProt entry, the sequences of proteins in these tests, tags left out.
UniProt Q92905: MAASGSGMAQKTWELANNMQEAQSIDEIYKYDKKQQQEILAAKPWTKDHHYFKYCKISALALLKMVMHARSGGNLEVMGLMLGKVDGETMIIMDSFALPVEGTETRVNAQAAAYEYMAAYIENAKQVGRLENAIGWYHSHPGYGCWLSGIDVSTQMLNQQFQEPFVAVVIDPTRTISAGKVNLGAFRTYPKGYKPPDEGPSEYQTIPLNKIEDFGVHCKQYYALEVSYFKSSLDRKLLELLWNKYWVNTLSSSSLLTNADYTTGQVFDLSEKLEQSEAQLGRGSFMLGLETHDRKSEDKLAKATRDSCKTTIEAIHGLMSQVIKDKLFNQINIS

The text below walks through data of PMC8265170.

Results are given in words; binding and its absence hold for the method and conditions named. In cells and extracts the contact can be indirect. A yes stands for co-enrichment or nearness to the bait. Other partners may have been found.

As to “C-Jun activation domain-binding protein-1 (JAB1) (from UniProt Q92905 1-334)”, the binding result is “binds”.
